# Screening data, single-dose tests

Source: ChEMBL document CHEMBL3988442, “University of Dundee, Small-Polar-MMV Screening Library” (2021).

Results are given as percent effect.
The controls that fix the scale are not given in the record; negative values are as filed.
This is an unselected part of the compounds tested.
Two or more numbers in one place are separate tests of the same structure; such repeats can differ widely.

A: 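Phenotypic screen: M. tuberculosis growth, glucose 7H9 medium, 3 days; the read-out is not stated. Tested at 50 µM. The record gives no direction; compounds that gave an IC50 in retests scored well above the rest, so higher reads as more growth inhibition. About 69,000 compounds were tested under these conditions; 1.1% (about 760) showed 50% or more at least once.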
B: 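Phenotypic screen: M. tuberculosis growth, cholesterol and DPPC medium, 4 days; the read-out is not stated. Compounds at 50 µM. Direction is inferred from retests: higher values go with more growth inhibition. Of about 69,000 compounds tested this way, about 370 (0.54%) reached 50% or more in at least one test.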

With COCC(=O)N(Cc1ccc2cc[nH]c2c1)C1CC1 the screen gave A: -8.029%; B: -13.06%. Result for Cc1ccc(Sc2ccc(CN3CCC4(CC3)NCCNC4=O)o2)cc1 was A: 25.43%; B: 6.056%. Result for COc1ccc(Nc2ccc(C#N)cn2)cc1N1CCCC1=O was A: 33.36% & -1.059%; B: 9.102%. Cn1c(C(=O)NC(Cc2ccsc2)c2cccnc2)cc(=O)n(C)c1=O (centres undefined) read A: 7.674%; B: 22.76%. For O=C(NCCn1nc2ccccn2c1=O)c1cc(C2CC2)[nH]n1 the result was A: -26.74%; B: -12.77%.

O=C(O)C(F)(F)F.O=C(c1c[nH]cn1)N1CCC(F)(F)C2(CCN(c3cccc(F)c3)C2)C1 (centres undefined) gave A: 63.92% & 8.045%; B: 1.725% & 11.8%. With COC(=O)CCN1CCC(NC(=O)OC(C)(C)C)CC1 the screen gave A: -0.9156%; B: 12.19%. Cc1nc(Cn2c3c(ccc2=O)CC(NC(N)=O)CC3)cs1 (centres undefined) read A: -36.42%; B: -20.2%. With CC(C)(C)N1CC(C(=O)NCc2noc(Cc3ccccc3)n2)CC1=O (centres undefined) the screen gave A: 3.371%; B: -17.32%. COCc1nc2ncc3c(=O)n(-c4cccc(OC)c4)ccc3n2n1 read A: -10.96%; B: 28.08% & -12.63%.

For N#Cc1cn(CCCN2CCc3ccccc3C2)c(=O)[nH]c1=O the result was A: 0.7295%; B: -19.16%. Cc1cc(C)n(C2CN(CC(=O)NC(C3CC3)C3CC3)C2)n1 gave A: 10.21%; B: -10.55%. CC(C)Cc1cc(CNC(=O)c2cccc3c2OCC3)no1 gave A: 23% & 10.57%; B: 3.455%. CCCC(=O)N1CCC2(CC1)CC(NC(C)=O)c1ccccc1O2 (centres undefined) gave A: 11.7%; B: 36.51%. Result for Cc1cc2cc(CNC3CCN(S(C)(=O)=O)CC3)oc2cc1C was A: -1.381%; B: 18.37%.

COC(CNC(=O)c1cc(C)on1)c1ccccc1C (centres undefined) gave A: 17.14%; B: 0.4618%. With Cl.c1cc(NCc2ccncc2)nc(C2CCCNC2)c1 (centres undefined) the screen gave A: 6.382%; B: -3.752% & 0.6965%. Result for Cc1ncnc2c1CCN(Cc1ccccn1)CC2.O=C(O)C(F)(F)F.O=C(O)C(F)(F)F was A: -15.03%; B: -10.18%. With CN1CCC2(CC1)CNC(=O)c1ccccc1O2 the screen gave A: 17.57%; B: -19.44%. Cn1cc(CC(=O)N2CCC(Nc3cccnn3)CC2)c2ccccc21 gave A: 11.53%; B: -0.09366%.

CN1CCN(C2CCN(CCOc3ccc(Cl)cc3)CC2)C1=O gave A: 9.408%; B: -7.25%. Cc1nc(C2CCCN2Cc2cc(Cl)c3c(c2)OCO3)no1 (centres undefined) gave A: 44.74%; B: 47.82%. With O=C(CCNc1ncccn1)Nc1cc(C(F)(F)F)c[nH]c1=O the screen gave A: -34.12%; B: -9.566%. With O=C(O)C(F)(F)F.[H][C@@]12CN(Cc3ccoc3)CCC[C@]1(C(=O)O)CN(c1ncccn1)C2 the screen gave A: 0.9816% & -5.108%; B: 8.726%. With COCCNC(=O)C1CN(Cc2ccsc2)Cc2ccnn2C1 (centres undefined) the screen gave A: 7.799% & -0.5202%; B: 8.217%.

With CCN1CCN(C)C2(CCN(C(=O)CC(F)(F)F)CC2)C1=O the screen gave A: 11.37%; B: -12.34%. For CSCC1CCCN(c2ncnc3oc(C)nc23)C1 (centres undefined) the result was A: 22.38%; B: -3.578%. With COC(=O)C1CCN(C(=O)Cn2ccc(-c3ccsc3)n2)CC1 the screen gave A: -5.002%; B: -3.348%. Result for Cn1cc(CNC2CC3(CCN(CC4CC4)CC3)c3ccccc32)cn1.O=C(O)C(F)(F)F.O=C(O)C(F)(F)F.O=C(O)C(F)(F)F (centres undefined) was A: -7.078% & -22.53%; B: 1.523%. Cn1c(CCNC(=O)Nc2cn[nH]c2)nc2ccc(F)cc21 read A: -5.378% & 1.467%; B: -1.333%.

O=C(O)C(F)(F)F.O=C(O)C(F)(F)F.[H][C@@]12CCN(Cc3ccccn3)C[C@]1(C(=O)NCc1ccco1)CCO2 gave A: 13.74% & -2.09%; B: 6.885%. With COc1cc2c(c(OC)c1OC)CCN(CCn1cncn1)CC2 the screen gave A: 5.201%; B: -4.4%. CCc1nc(N2CCCC(CCCOC)C2)c2cnn(C)c2n1 (centres undefined) read A: 29.95%; B: 15.07%. Result for Cc1nc(CCN2CCCCC2)n(-c2ccc(F)cc2)n1 was A: -8.986% & -1.546%; B: -4.911%. Result for Cc1ncc2c(n1)CN(Cc1nc(-c3ccsc3)no1)CC2 was A: -24.62%; B: -1.194%.

For Cl.Cn1nc(C2CCCN(Cc3cccc(F)c3)C2)c2nccnc21 (centres undefined) the result was A: 24.12%; B: 6.929%. Cc1cccc2nc(CN3CCCC3Cn3cncn3)cn12 (centres undefined) read A: -17.33%; B: 1.566%. CC(C)N1CCCC(CNC(=O)Cc2csc(-c3cccnc3)n2)C1 (centres undefined) read A: 20.71%; B: 12.65%. CC(C)(C)c1n[nH]c(C2CN(C(=O)CCc3ccco3)CCO2)n1 (centres undefined) gave A: 28.41%; B: 16.54%.

The first 4 entries again:

- COCC(=O)N(Cc1ccc2cc[nH]c2c1)C1CC1 | A: -8.029%; B: -13.06%
- Cc1ccc(Sc2ccc(CN3CCC4(CC3)NCCNC4=O)o2)cc1 | A: 25.43%; B: 6.056%
- COc1ccc(Nc2ccc(C#N)cn2)cc1N1CCCC1=O | A: 33.36% & -1.059%; B: 9.102%
- Cn1c(C(=O)NC(Cc2ccsc2)c2cccnc2)cc(=O)n(C)c1=O (centres undefined) | A: 7.674%; B: 22.76%